Data as given in publication PMC12419110.
Positions count from the first letter of the chain named. These are yes or no findings as the source states them, for the method shown. Binding seen in cells or lysates may run through a third protein. Some binding calls cover weakened binding; strength is not graded here. Tags and fused reporters may be left off the sequences shown.

T1: HA tagged R73P variant of mouse Cfap410 (endogenous knock-in) (mouse) (UniProt Q8C6G1)
T1 sequence: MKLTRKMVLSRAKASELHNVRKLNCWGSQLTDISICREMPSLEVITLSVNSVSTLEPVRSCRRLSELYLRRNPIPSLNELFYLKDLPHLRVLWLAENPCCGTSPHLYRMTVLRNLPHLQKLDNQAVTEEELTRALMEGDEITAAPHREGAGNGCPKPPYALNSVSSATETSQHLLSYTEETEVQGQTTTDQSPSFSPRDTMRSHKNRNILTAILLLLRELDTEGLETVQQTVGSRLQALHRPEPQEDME

T2: HA tagged V20M variant of mouse Cfap410 (endogenous knock-in) (mouse) (UniProt Q8C6G1)
T2 sequence: T1 sequence with V20M, P73R

T3: HA tagged wild-type mouse Cfap410 (249aa isoform, endogenous knock-in) (mouse) (UniProt Q8C6G1)
T3 sequence: T1 sequence with P73R

B1: SPATA7 (protein, UniProt Q80VP2 1-582)
chain: MDGSRRVRATSVLPRYSPPCLFTGHLSTKSNAFCTDSSSLRLSTLQLVKNHMAIHYNKILSAKAAVDCSIPVSVNTSIKYADQQRREKLRKELARCEKEFKLSKSAMQTNSKMNSKFFVNSLQKPSGEPQDQDVFIEEMTRYPSFSKSLIPSSEGLHLSLPESSKMLMSGTQKHASTSPSRHSGCGHGCDRRPRSAHQFQVALAKTPSGDLLEKHSDLFSNKQSPFTPRTLKTEAKSFLSQYRYYTPAKRRKDFSDQRMEAETQTELSSFNSELGTAEKTSSKDSEVNINQVPNYTRNGAEDKIAPLPSQGQNLAWDSIQDGILQQSSERASCKLSTEFSPDSKIYSDEEELLYLSFMENVTDEILKLGLFSNRFLERLFERHIKKNKHHLEEGKMRYLLHGLKVDLGCISEEDPAKQKHFRMLNQLHFQKALISRENEFVSDEETVSHHERQQYQEALDMLSAVPKDENKMFSLPGEFLIPAHKVKHSEGVIIQQVNDETDNEASPWNENNPSVSDSVIDQETSVDVIEGDSDFERAETSRELCCLSTSLSPSGPFPSINGGSNHGKELSTLRIMGMSIED
B2: never in mitosis gene A related kinase 1 (NEK1) (protein, UniProt P51954 1-1203)
chain: MEKYVRLQKIGEGSFGKAVLVKSTEDGRHYVIKEINISRMSDKERQESRREVAVLANMKHPNIVQYKESFEENGSLYIVMDYCEGGDLFKRINAQKGALFQEDQILDWFVQICLALKHVHDRKILHRDIKSQNIFLTKDGTVQLGDFGIARVLNSTVELARTCIGTPYYLSPEICENKPYNNKSDIWALGCVLYELCTLKHAFEAGNMKNLVLKIISGSFPPVSPHYSYDLRSLLSQLFKRNPRDRPSVNSILEKGFIAKRIEKFLSPQLIAEEFCLKTLSKFGPQPLPGKRPASGQGVSSFVPAQKITKPAAKYGVPLTYKKYGDKKLLEKKPPPKHKQAHQIPVKKMNSGEERKKMSEEAAKKRRLEFIEKEKKQKDQIRFLKAEQMKRQEKQRLERINRAREQGWRNVLRAGGSGEVKASFFGIGGAVSPSPCSPRGQYEHYHAIFDQMQRLRAEDNEARWKGGIYGRWLPERQKGHLAVERANQVEEFLQRKREAMQNKARAEGHVVYLARLRQIRLQNFNERQQIKAKLRGENKEADGTKGQEATEETDMRLKKMESLKAQTNARAAVLKEQLERKRKEAYEREKKVWEEHLVARVKSSDVPLPLELLETGGSPSKQQVKPVISVTSALKEVGLDGSLTDTQEEEMEKSNSAISSKREILRRLNENLKAQEDEKEKQHHSGSCETVGHKDEREYETENAISSDRKKWEMGGQLVIPLDAVTLDTSFSATEKHTVGEVIKLDSNGSPRKVWGKNPTDSVLKILGEAELQLQTELLENTSFKSEVYAEEENYKPLLTEEENLQCISKEINPSATVDSTETKSPKFTEVSPQMSEGNVEEPDDLETEVLQEPSSTHTDGSLPPVLNDVWTREKEAAKETELEDKVAVQQSEVCEDRIPGNVDQSCKDQRDPAVDDSPQSGCDVEKSVQPESIFQKVVHSKDLNLVQAVHCSPEEPIPIRSHSDSPPKTKSKNSLLIGLSTGLFDANNPKMLRTCSLPDLSKLFRTLMDVPTVGDVHQDSLEIDELEDEPIKEGPSDSEDTVFEETDTDLQELQASMEQLLREQPGDEYSEEEESVLKSSDVEQTARGTDAPDEEDNPSSESALNEEWHSDNSDAETTSECEYDSVFNHLEELRLHLEQEMGFEKFFEVYEKVKAIHEDEDENIEICSTIVENILGNEHQHLYAKILHLVMADGAYQEDNDE
B3: FBXO3 (protein, UniProt Q9DC63 1-480)
chain: MAAVEAETGLLTLESLPTDPLLLILSFVDYRDLINCCYVSRRLSQLSTHDPLWRRHCKKYWLISEEEKAGKSQCWRSLFIETYSDVGRYIDHYAAIKKAWRDLKKYLEPRCPRMVLSLKEGAREEDLDAVEAQIGCKLPDDYRCSYRIHNGQKLVVPGLLGSMALSNHYRSEDLLDVDTAAGGFQQRQGLKYCLPLTFCIHTGLSQYIAVEAAEGRNKNEVFYQCPDQMARNPAAIDMFIIGATFTDWFTSYVNNVVSGGFPIIRDQIFRYIHDPECVATTGDITVSVSTSFLPELSSVHPPHYFFTYRIRIEMSRDALPEKACQLDSRYWRITNAKGDVEEVQGPGVVGEFPIISPGRIYEYTSCTTFSTTSGYMEGYYTFHFLYFKDKVFNVAIPRFHMACPTFRVSIARLEMGPDEYEEMEEEAEEEEEEENDDSADMDESDESDADENESDEGEGEARRRRVFDVPIRRRRCSRLF

These binders were tested against T1, HA tagged R73P variant of mouse Cfap410 (endogenous knock-in) (mouse) (assay: co-IP; anti-HA magnetic beads (50 ug) with 2 mg lysate of motor neuron cultures overnight at 4 C; lysis in 20 mM Tris pH 7.5, 150 mM NaCl, 1 mM EDTA, 1 mM EGTA, 1% Triton X-100; washed with PBS-Tween; immunoblot for NEK1, SPATA7 and FBXO3, densitometry normalised to HA).

| binding | Binder |
| --- | --- |
| binds | B1 |
| binds | B2 |
| binds | B3 |

What follows are binders tested against T2, HA tagged V20M variant of mouse Cfap410 (endogenous knock-in) (mouse) in the same assay as above.

| binding | Binder |
| --- | --- |
| binds | B1 |
| binds | B2 |
| binds | B3 |

What follows are binders tested against T3, HA tagged wild-type mouse Cfap410 (249aa isoform, endogenous knock-in) (mouse) in the same assay as above.

| binding | Binder |
| --- | --- |
| binds | B1 |
| binds | B2 |
| binds | B3 |
